Patent US11672787B2, “Compounds as mPGES-1 inhibitors” (Khondrion IP B.V., priority 2017, dated 2023)
For at least one compound, name, drawing or mass did not settle the structure.

System: RAW 264.7 murine macrophage cells
Test: Prostaglandin levels (ELISA) in supernatant of LPS-stimulated RAW 264.7 cells
Format: cell-based
Conditions: 1 μg/mL LPS, 24 hours, increasing concentrations
Experimental: FIG. 2. (A-C) Levels of prostaglandins (PG) PGE2 (A), PGD2 (B) and 6-keto PGF1a (C) in supernatant of RAW 264.7 murine macrophage cells exposed for 24 hours to vehicle or 1 μg/mL lipopolysaccharide (LPS), normalized on vehicle. (D-F) Levels of PGE2, PGD2 and 6-keto PGF1a in supernatant of RAW 264.7 murine macrophage cells exposed for 24 hours to vehicle or 1 μg/mL LPS, alone (set as 100%) or in combination with increasing concentrations of compound I-IVb-X (a compound of general structure (I) wherein T is of general structure (IVb), in the S,R-configuration, and wherein as per compound X the following apply: L=L^19; R^1═H; R^2—R^2′=L^3; R^3═H; indicated as KH) (D), non-selective COX inhibitor indomethacin (E) or COX-2 inhibitor celecoxib (F).
RAW264.7 cells (Sigma-Aldrich, St-Louis) were maintained in DMEM (Thermo Fisher Scientific) containing 10% FBS (Greiner Bio-one), and antibiotics (100 U/ml penicillin, 100 μg/ml streptomycin) under a humidified atmosphere of 5% CO2 at 37° C. The cells were grown to 80% confluence, scraped and then cultured in either 96-well plates (2×10^4 cells/well) or six-well plates (4×10^5 cells/well) for 6-24 hours before an experiment.
The concentration of the PGE2, PGD2 and 6-keto-PGF1α in culture medium was determined by Enzyme-Linked Immuno Sorbent Assay (ELISA) using, respectively, the PGE2 high sensitivity EIA kit (Enzo Life Science), the Prostaglandin D2-MOX ELISA Kit (Cayman Chemicals) and the 6-keto Prostaglandin F1α ELISA Kit (Cayman Chemicals), according to the manufacturer's instructions. […]
RAW 264.7 macrophage cells were treated with the inflammatory stimulus LPS alone or in combination with increasing concentrations of compound I-IVb-X (a compound of general structure (I) wherein T is of general structure (IVb), in the S,R-configuration, and wherein as per compound X the following apply: L=L^19; R^1═H; R^2—R^2′=L^3; R^3═H), the NSAID indomethacin or the Coxib Celecoxib. After 24 hours incubation the levels of PGE2, PGD2 and 6-keto PGF1a were quantified in the cell supernatant by ELISA. […]

Cc1ccc(-c2cc(C(F)(F)F)nn2-c2ccc(S(N)(=O)=O)cc2)cc1 [Celecoxib]
dose-dependently reduced: level of 6-keto PGF1a in cell supernatant | level of PGD2 in cell supernatant | level of PGE2 in cell supernatant
